Literature values as cited in patent publication US9817001B2, “Methods for determining LDL cholesterol treatment” (Boston Heart Diagnostics Corporation, priority 2008, dated 2017).
At least one compound was matched to its structure with a doubt left.

System: HDL particle profile (α-1 HDL, preβ-1 HDL)
Details: statin therapy; decreasing pre-β1 and increasing α-1

Q: Which “statin effectiveness to change the HDL particle profile beneficially” value does the source give for `CC(C)n1c(/C=C/C(O)CC(O)CC(=O)O)c(-c2ccc(F)cc2)c2ccccc21` (stereo not shown) [fluvastatin] here?
A: adverse effect
